Results reported in the supplement of paper PMC4635364.
Counter-ions that a name gives are not always drawn. This is one part of the list. Single values are uncertain here, since repeats match poorly.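 Cells: ReNCell VM human fetal ventral-midbrain neural progenitors, differentiated mitogen-free. Blinded raters compared doublecortin-stained (early neurons) or tyrosine hydroxylase-stained (dopaminergic neurons) images with untreated wells, where 0 means no change. After repeats and both raters were averaged, compounds scoring 2 or above became hits for retesting.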

system: ReNCell VM; assay: neuronal differentiation score (DCX+ cell fraction vs untreated, manual image score) (score (-3 to 3)); higher = more neuronal differentiation; settings: library: Prestwick; 2 uM; 2 weeks

Neuronal differentiation score, inactive:
C=C1/C(=C\C=C2/CCC[C@]3(C)[C@@H]([C@H](C)/C=C/[C@@H](O)C4CC4)CC[C@@H]23)C[C@@H](O)C[C@@H]1O [Calcipotriene] 0
CCOC(=O)[C@H](CCc1ccccc1)N[C@H]1CCc2ccccc2N(CC(=O)O)C1=O [Benazepril HCl] 0
C[C@H](CCC(=O)O)[C@H]1CC[C@H]2[C@@H]3C(=O)C[C@@H]4CC(=O)CC[C@]4(C)[C@H]3CC(=O)[C@]12C [Dehydrocholic acid] 0
CN[C@@H]1[C@@H](O[C@H]2O[C@H](CO)[C@@H](N)[C@H](O)[C@H]2O)OC2C[C@@H](N)[C@@H](O[C@H]3[C@H](O)[C@@H](O)[C@H](N)C[C@@H]3N)OC2[C@@H]1O (some centres undefined) [Apramycin] 0
CC1(C)S[C@@H]2[C@H](NC(=O)[C@H](N)c3ccc(O)cc3)C(=O)N2[C@H]1C(=O)O [Amoxicillin] 0

same assay, conditions: library: Spectrum; 2 uM; 2 weeks

Neuronal differentiation score, inactive:
NS(=O)(=O)c1cc2c(cc1Cl)N=C(CSCc1ccccc1)NS2(=O)=O 0
COc1cccc2c1C(=O)c1c(O)c3c(c(O)c1C2=O)C[C@@](O)(C(=O)CO)C[C@@H]3O[C@H]1C[C@H](N)[C@H](O)[C@H](C)O1 0
O=C(c1ccc(OCCN2CCCCC2)cc1)c1c(-c2ccc(O)cc2)sc2cc(O)ccc12 0
CC(=O)Oc1cc(C(C)C)c(OCCN(C)C)cc1C 0
CC1(C)CC2C1CCC1(C)OC2(C)CCC1O (centres undefined) 0
CC(=O)[C@H]1CC[C@H]2[C@@H]3C=CC4=CC(=O)CC[C@@]4(C)[C@@H]3CC[C@]12C -1
C[C@@H](O)[C@H]1C(=O)N2C(C(=O)O)=C(S[C@@H]3CN[C@H](C(=O)N(C)C)C3)[C@H](C)[C@H]12 0
CC(=O)OCC(=O)[C@H]1CC[C@H]2[C@@H]3CCC4=CC(=O)CC[C@]4(C)[C@H]3CC[C@]12C 0
COc1ccc2c(=O)c(CC(=O)O)coc2c1 0
CC(=O)OCC(=O)[C@@]1(O)CC[C@H]2[C@@H]3CCC4=CC(=O)C=C[C@]4(C)[C@@]3(F)[C@@H](O)C[C@@]21C 0
C[C@]12C=CC(=O)C=C1CC[C@@H]1[C@@H]2[C@@H](O)C[C@@]2(C)[C@H]1CC[C@]2(O)C(=O)COC(=O)CCC(=O)O 0
O=C(O)c1cc(O)c(O)c(O)c1 0
C=CCOC(Cn1ccnc1)c1ccc(Cl)cc1Cl (centres undefined) 0
CN(C)CCOC(c1ccc(Cl)cc1)c1ccccn1 (centres undefined) 0
CC[C@H]1OC(=O)[C@H](C)[C@@H](O[C@H]2C[C@@](C)(OC)[C@@H](O)[C@H](C)O2)[C@H](C)[C@@H](O[C@@H]2O[C@H](C)C[C@H](N(C)C)[C@H]2O)[C@](C)(O)C[C@@H](C)C(=O)[C@H](C)[C@@H](O)[C@]1(C)O 0
Cc1cccc(N(C)C(=S)Oc2ccc3ccccc3c2)c1 0
CC(=O)N[C@@H](CC(=O)N[C@@H](CCC(=O)O)C(=O)O)C(=O)O 0
CC1(C)CC2C1CC[C@]1(C)CCC3C(C(=O)O)CC(=O)O[C@@]32C1 (some centres undefined) [3-HYDROXY-4-(SUCCIN-2-YL)-CARYOLANE delta-LACTONE] 0

same assay, conditions: library: Tocriscreen; 2 uM; 2 weeks

Neuronal differentiation score, inactive:
CC1=C(/C=C/C(=C/C=C/C(C)=C/C(=O)O)c2ccc(C)cc2)C(C)(C)CCC1 0
Nc1ccc(-c2cccc3c(=O)cc(N4CCOCC4)oc23)cc1 0
CC(=O)N(O)[C@@H]1c2cc(C#N)ccc2OC(C)(C)[C@H]1O 0
O=c1oc(-c2ccc(C(F)(F)F)cc2)nn1Cc1cc(Cl)ccc1O 0
COc1ccc(CN(CCN(C)C)c2ccccn2)cc1 [Mepyramine maleate] 0
c1ccc(N2CCN(CCCOc3ccc4c(c3)OCO4)CC2)cc1 [BP 554 maleate] 0
Cc1cc(C)c(S(=O)(=O)Nc2ccccc2C(F)(F)F)c(C)c1 0
CCCCN1CCC(CCC(=O)c2cc(Cl)c(N)cc2OC)CC1 0
Cc1nc2sccn2c(=O)c1CCN1CCC(=C(c2ccccc2)c2ccc(F)cc2)CC1 0
CC1(C)C[C@@H]1C(=O)N/C(=C\CCCCSC[C@H](N)C(=O)O)C(=O)O [Cilastatin sodium] 0
Oc1ccc(-c2c(-c3ccccc3)nn3c(C(F)(F)F)cc(C(F)(F)F)nc23)cc1 0

At a glance, five of the compounds above.
Neuronal differentiation score, inactive:
c1ccc(N2CCN(CCCOc3ccc4c(c3)OCO4)CC2)cc1 [BP 554 maleate] 0
Cc1cc(C)c(S(=O)(=O)Nc2ccccc2C(F)(F)F)c(C)c1 0
CCCCN1CCC(CCC(=O)c2cc(Cl)c(N)cc2OC)CC1 0
Cc1nc2sccn2c(=O)c1CCN1CCC(=C(c2ccccc2)c2ccc(F)cc2)CC1 0
CC1(C)C[C@@H]1C(=O)N/C(=C\CCCCSC[C@H](N)C(=O)O)C(=O)O [Cilastatin sodium] 0

3 compounds out of the list, sorted by SMILES length, descending.
Neuronal differentiation score, inactive:
CC1=C(/C=C/C(=C/C=C/C(C)=C/C(=O)O)c2ccc(C)cc2)C(C)(C)CCC1 0
CC1(C)C[C@@H]1C(=O)N/C(=C\CCCCSC[C@H](N)C(=O)O)C(=O)O [Cilastatin sodium] 0
O=c1oc(-c2ccc(C(F)(F)F)cc2)nn1Cc1cc(Cl)ccc1O 0

system: ReNCell VM; assay: dopaminergic neuron differentiation score (TH+ cell fraction vs untreated, manual image score) (score (0 to 3)); higher = more TH+ dopaminergic neuron differentiation; settings: library: Prestwick; 2 uM; 4 weeks; BDNF 10 ng/ml + GDNF 10 ng/ml

Dopaminergic neuron differentiation score, inactive:
C=C1/C(=C\C=C2/CCC[C@]3(C)[C@@H]([C@H](C)/C=C/[C@@H](O)C4CC4)CC[C@@H]23)C[C@@H](O)C[C@@H]1O [Calcipotriene] 0
CCOC(=O)[C@H](CCc1ccccc1)N[C@H]1CCc2ccccc2N(CC(=O)O)C1=O [Benazepril HCl] 0
C[C@H](CCC(=O)O)[C@H]1CC[C@H]2[C@@H]3C(=O)C[C@@H]4CC(=O)CC[C@]4(C)[C@H]3CC(=O)[C@]12C [Dehydrocholic acid] 0
CN[C@@H]1[C@@H](O[C@H]2O[C@H](CO)[C@@H](N)[C@H](O)[C@H]2O)OC2C[C@@H](N)[C@@H](O[C@H]3[C@H](O)[C@@H](O)[C@H](N)C[C@@H]3N)OC2[C@@H]1O (some centres undefined) [Apramycin] 0
CC1(C)S[C@@H]2[C@H](NC(=O)[C@H](N)c3ccc(O)cc3)C(=O)N2[C@H]1C(=O)O [Amoxicillin] 0
